Measured values reported in patent US20250064813A1, “STABLE LIQUID PHARMACEUTICAL FORMULATION” (GENUV Inc., priority 2022, published 2025).
The name of at least one read-out is uncertain.

Assay: Solubility screening of Compound 1 in various solubilizers
Assay type: physicochemical
Details: excess Compound 1 in 500 mg solubilizer, 24 hours, HPLC; FIG. 1

## CC(=O)Nc1cccc(-n2c(=O)n(C3CC3)c(=O)c3c(Nc4ccc(I)cc4F)n(C)c(=O)c(C)c32)c1 [Compound 1, N-(3-{3-Cyclopropyl-5-[(2-fluoro-4-iodophenyl)amino]-6,8-dimethyl-2,4,7-trioxo-3,4,6,7-tetrahydropyrido[4,3-d]pyrimidin-1 (2H)-yl}phenyl) acetamide]
  solubility of Compound 1 in solubilizers: higher solubility in the medium chain (at least Ca) fatty acid derivatives and the solubilizers having (poly-) ethoxy groups
